Measurements from PubChem BioAssay AID2685 (National Center for Advancing Translational Sciences (NCATS), 2010).
The other results are listed elsewhere or left out. The main result of the screen is listed elsewhere. These columns were measured beside it and carry no call. The list favours compounds with an active or inconclusive main result. Potencies come from curve fits of mixed quality, noted in brackets.

Assay: qHTS Assay for Lipid Storage Modulators in Drosophila S3 Cells;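 on cell number change: cells counted by Cell Tracker Red CMTPX staining in the red channel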
Details: BODIPY lipid droplet fluorescence, 18-24 h; for cell number change: measured here: cell count max response, cells fed with added oleic acid
Method in brief: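 Laser-scanning cytometry quantifies lipid droplet accumulation (500–530 nm total intensity; droplet/cell object ratio) in oleic acid-fed (400 uM added) Drosophila S3 cells treated with a concentration series. 20 uM Triacsin C defined 100% inhibition.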

[1] = measured here: lipid fluorescence (Fed channel) AC50, cells fed with added oleic acid
[2] = measured here: cell number channel AC50, cells fed with added oleic acid

SMILES	cell number change [%]	AC50 [1]	AC50 [2]
Cc1nnc(SCC(=O)Nc2sccc2C(N)=O)n1Cc1ccccc1	-1.82	5.8 µM [rising, full curve]	
COc1cc(C2C(C(=O)c3ccco3)=C(O)C(=O)N2c2cc(C)on2)cc(Br)c1O (stereo unspecified)	-10		
Cn1cc(Br)c(C(=O)NNC(=O)c2ccccc2)n1	-51	18.4 µM [falling, single point]	16.4 µM [falling, partial curve, poor fit]
CCn1c(N)c(C(=O)NCc2ccc3c(c2)OCO3)sc1=S	6.79	2.59 µM [rising, partial curve]	
O=C(COC(=O)c1cncc(Br)c1)NC1CCCC1	-13.2		
Cc1ccc(C(=O)O/N=C(\c2ccccc2)c2ccncc2)cc1	16.8		
Cc1cc(C)cc(Oc2ccc(N)cc2)c1	-31	1.64 µM [rising, full curve, poor fit]	29.1 µM [falling, single point]
C=CCNc1nc(-c2ccc(OC)cc2OC)cs1	-4.21	0.00461 µM [rising, full curve, poor fit]	
Cc1cc(/C=C2/C(=O)NN(c3ccccc3)C2=O)c(C)n1-c1ccc(O)cc1	-4.24	29.1 µM [rising, single point]	
COC(=O)c1ccccc1NC(=O)N1CCc2ccc(NC(=O)c3ccccn3)cc2C1	20.5		
CC1CCN(C(=O)CSc2nc3ccccc3s2)CC1	81.8	29.1 µM [rising, single point]	18.4 µM [rising, partial curve]
Cc1ccc(S(=O)(=O)N2CCN(Cc3nnc(-c4c(-c5ccccc5)noc4C)o3)CC2)cc1	-34.1	2.31 µM [falling, partial curve, poor fit]	0.651 µM [falling, partial curve, poor fit]
COc1ccccc1CNS(=O)(=O)c1cc(-c2cc(C)no2)ccc1C(C)C	-5.32	29.1 µM [falling, single point]	
O=C(N/N=C/c1ccc2c(c1)OCO2)c1ccn(Cc2ccc(Cl)cc2)n1	49	29.1 µM [rising, single point]	4.11 µM [rising, full curve]
O=C1CC(c2ccc(Cl)cc2)n2nc(NS(=O)(=O)c3ccc(F)cc3)nc2N1 (stereo unspecified)	8.6	18.4 µM [rising, single point]	
CCC1(c2ccc(F)cc2)NC(=O)N(CC(=O)NCC(=O)Nc2cccc(C)c2C)C1=O (stereo unspecified)	57		2.59 µM [rising, full curve]
O=C(Cc1ccccc1)N1CCCC(c2nc(-c3cccs3)no2)C1 (stereo unspecified)	-1.5	0.651 µM [falling, single point]	
CCn1c(=O)c2c(nc(SCC(=O)N3CCCC(C)C3)n2C)n(C)c1=O (stereo unspecified)	1.3	6.51 µM [falling, single point]	
CN1/C(=C\C(=O)CN2C(=O)NC3(CCCCCC3)C2=O)C(C)(C)c2ccccc21	-28.1	18.4 µM [falling, single point]	
Cc1ccc2c(C)c(C(=O)N(Cc3ccncc3)CC3CCCO3)oc2c1C (stereo unspecified)	29.2		

SMILES	cell number change [%]	AC50 [1]	AC50 [2]
CON/C=C(\C=Nc1ccc(Cl)cc1Cl)c1ncc(C(F)(F)F)cc1Cl	-70	0.58 µM [rising, single point]	16.4 µM [falling, single point]
Cc1cccc(NC(=O)CN2C(=O)NC(C)(c3ccc4ccccc4c3)C2=O)n1 (stereo unspecified)	-6.43	6.51 µM [falling, single point]	6.51 µM [falling, single point]
Cc1ccccc1NC(=O)/C(C#N)=C/c1ccc(-c2ccc(Cl)c(C(=O)O)c2)o1	20		
O=C(NCc1ccccc1)Nc1cccn(Cc2ccccc2F)c1=O	18.1	0.00461 µM [rising, full curve, poor fit]	2.91 µM [falling, single point]
COc1ccccc1C(=O)N=C1NC(=O)CC2C(=O)NCCN12 (stereo unspecified)	-37	29.1 µM [falling, single point]	23.1 µM [falling, single point]
CSc1ccccc1NC(=O)CN1CCCCC1C (stereo unspecified)	-21		3.26 µM [falling, full curve, poor fit]
Clc1ccc(OCCN2CCCCC2)c(Cl)c1	-89.8	25.9 µM [falling, partial curve]	32.6 µM [falling, partial curve]
C=CCOC(=O)/C(=C/c1cccc2ccccc12)NC(=O)c1ccccc1	5.67	0.116 µM [falling, full curve, poor fit]	
CCN(Cc1ccncc1)C(=O)c1cc(COc2ccc(OC)cc2Cl)on1	28.5	6.51 µM [rising, partial curve, poor fit]	
O=C(Nc1ccc2c(c1)CCC2)c1cc(S(=O)(=O)N2CCN(c3ccccc3)CC2)ccc1Cl		6.51 µM [falling, single point]	
COc1cccc(C=O)c1OC(=O)N1CCOCC1	18.9	23.1 µM [rising, partial curve, poor fit]	
COc1ccc(NC(=O)Cn2nnc(C(=O)NCc3ccccc3)c2N)cc1Cl	-12.9	0.0731 µM [falling, partial curve]	
O=C(O)c1c(C(=O)N2N=C3/C(=C/c4ccccc4)CCCC3C2c2ccccc2)cccc1[N+](=O)[O-] (stereo unspecified)	44.4		4.61 µM [rising, full curve, poor fit]
COCCNC(=O)/C(C#N)=C/c1ccc(C(=O)O)cc1	65.6		
CCOC(=O)c1c(C)n(CCO)c2ccc(O)cc12	37.5	14.6 µM [rising, partial curve]	29.1 µM [rising, single point]
CCCCN(C(=O)c1cc2c(s1)CCCCC2)c1c(N)n(CCC)c(=O)[nH]c1=O	3.76		
CCOc1ccc(C(C(=O)NC2CCCCC2)N(C(=O)c2ccccn2)c2cccnc2)cc1 (stereo unspecified)	-6.38	3.66 µM [falling, partial curve, poor fit]	
CC(=O)c1ccc(NC(=O)CCc2ccc(C)o2)cc1	-11.5	3.26 µM [falling, single point]	
O=C(/C=C/c1cccc(Cl)c1)Nn1c(-c2cccs2)nc2ccccc2c1=O	4.1	0.731 µM [rising, full curve, poor fit]	
CN(C)c1ccc(/C=C/C#N)cc1	62.4		6.51 µM [rising, partial curve]

SMILES	cell number change [%]	AC50 [1]	AC50 [2]
Cc1ccccc1NC(=O)NCCc1nc2ccccc2[nH]1		0.146 µM [rising, full curve, poor fit]	0.13 µM [rising, full curve, poor fit]
COc1ccccc1-c1nn(-c2ccccc2)cc1C(=O)N1CCc2ccccc2C1		2.31 µM [falling, partial curve, poor fit]	
CCOC(=O)c1c(NC(=O)COc2cccc3c2CCN(C)C3=O)sc2c1CCC2	-53	5.8 µM [falling, partial curve, poor fit]	29.1 µM [falling, single point]
COc1ccc(-c2nnn(CC(=O)N(CC(=O)NC3CCCC3)c3ccccc3F)n2)cc1OC	11.8		
CN(C)/N=C/C=C1\CC/C(=C\c2ccc(Br)cc2)C1=O	73.4	16.4 µM [rising, partial curve]	18.4 µM [rising, partial curve]
CCOc1ccc(-c2nnc(SCC(=O)NC3CC3)o2)cc1	-5.57		
CCCn1c(CN2CCN(C(=O)OCC)CC2)nc2cc(NC(C)=O)ccc21	-10.5	0.0058 µM [falling, full curve, poor fit]	
COc1ccc(-n2c(O)c(/C=N/NS(=O)(=O)c3ccc(C)cc3)c3ccccc3c2=O)cc1OC		14.6 µM [falling, partial curve]	
CSc1ncccc1C(=O)NCc1ccccc1Cl	-11.1		
CCc1ccccc1NC(=O)NCc1cccnc1	-3.64		
CC(NC(=O)c1ccco1)C(=O)OCC(=O)c1ccc(Cl)s1 (stereo unspecified)	-21.1	32.6 µM [falling, single point]	
CC(C)[C@H](NC(=O)c1ccccc1)C(=O)OCC(=O)N1CCN(C(=O)c2ccco2)CC1	-19.4		
COc1ccccc1CCC(=O)Oc1ccc(C#N)cc1OC	11.9	6.51 µM [falling, single point]	
Cc1cccc(NC(=O)CN(C2=NC3CS(=O)(=O)CC3S2)c2ccccc2F)c1 (stereo unspecified)	20.2	0.651 µM [rising, full curve, poor fit]	2.59 µM [rising, single point]
CCn1cc([N+](=O)[O-])c(C(=O)N2CCCc3ccccc32)n1	-6.35	6.51 µM [rising, single point]	
O=C(COC(=O)C1CC(=O)N(Cc2ccccc2)C1)c1ccc(Br)cc1 (stereo unspecified)	78.3		29.1 µM [rising, single point]
COC(=O)c1cc(-c2ccc(Br)cc2)c2c(=O)[nH]c(=O)n(C)c2n1	19.7		
COc1cc(C(=O)Nc2ccc(NC(=O)C3CCCCC3)nc2)cc(OC)c1OC	32.3		
O=C(Cc1ccccc1)NCCSCc1ccco1	51.6		10.3 µM [rising, partial curve]
COc1ccc(C)cc1NC(=S)N1CCN(S(C)(=O)=O)CC1	-7.54		0.731 µM [rising, single point]

An excerpt from above in order of count of non-hydrogen atoms, ascending:
SMILES	cell number change [%]	AC50 [1]	AC50 [2]
O=C(Cc1ccccc1)NCCSCc1ccco1	51.6		10.3 µM [rising, partial curve]
CN(C)/N=C/C=C1\CC/C(=C\c2ccc(Br)cc2)C1=O	73.4	16.4 µM [rising, partial curve]	18.4 µM [rising, partial curve]
CCOc1ccc(-c2nnc(SCC(=O)NC3CC3)o2)cc1	-5.57		
COc1ccccc1CCC(=O)Oc1ccc(C#N)cc1OC	11.9	6.51 µM [falling, single point]	
COC(=O)c1cc(-c2ccc(Br)cc2)c2c(=O)[nH]c(=O)n(C)c2n1	19.7		
O=C(COC(=O)C1CC(=O)N(Cc2ccccc2)C1)c1ccc(Br)cc1 (stereo unspecified)	78.3		29.1 µM [rising, single point]
CCCn1c(CN2CCN(C(=O)OCC)CC2)nc2cc(NC(C)=O)ccc21	-10.5	0.0058 µM [falling, full curve, poor fit]	
Cc1cccc(NC(=O)CN(C2=NC3CS(=O)(=O)CC3S2)c2ccccc2F)c1 (stereo unspecified)	20.2	0.651 µM [rising, full curve, poor fit]	2.59 µM [rising, single point]
CCOC(=O)c1c(NC(=O)COc2cccc3c2CCN(C)C3=O)sc2c1CCC2	-53	5.8 µM [falling, partial curve, poor fit]	29.1 µM [falling, single point]
COc1ccccc1-c1nn(-c2ccccc2)cc1C(=O)N1CCc2ccccc2C1		2.31 µM [falling, partial curve, poor fit]	
CC(C)[C@H](NC(=O)c1ccccc1)C(=O)OCC(=O)N1CCN(C(=O)c2ccco2)CC1	-19.4		
COc1ccc(-c2nnn(CC(=O)N(CC(=O)NC3CCCC3)c3ccccc3F)n2)cc1OC	11.8		
